Out of some 320,000 compounds screened, about 22,000 (6.9%) were called active. The shares of active, inactive and inconclusive entries below differ from those in the screen. Calls follow the shape of the dose curve; as a rule, active = well fitted inhibition curve with a large enough effect; inconclusive = small, poorly fitted or top-dose-only effect, or another doubt; inactive = no such curve, though single readings can be large or run the other way. Potencies beside an inconclusive call are fits to weak or partial responses and may not hold up.
Assay: Primary qHTS for delayed death inhibitors of the malarial parasite plastid, 96 hour incubation
Settings: P. falciparum luciferase reporter growth; series mostly up to 28.7 µM
Method in brief: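 Two parasite generations (96 h, 37 C, 5% CO2) of compound exposure in infected erythrocytes (0.05% parasitemia, 2% hematocrit). Luciferase-reporter P. falciparum; decreased luminescence indicates inhibited growth, aimed at apicoplast-acting delayed death.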
% is scaled to controls: 0 for no effect and ±100 for the full control effect; potency is read from the fitted curve at half-maximal effect.

SMILES	Potency	activity change, negative = inhibition
CN(C(=O)COC(=O)CSc1ccc(C(N)=O)cc1[N+](=O)[O-])C1CCCCC1	inactive	–
CC(=O)N(c1ccccc1)c1nc(C)cc(C)c1C#N	inactive	–
CC(=O)Cc1nsc(NC(=O)c2oc(-c3ccccc3Cl)cc2C)n1	inconclusive: 10.4 µM [inhibitor, single point]	–
CCN1C(=O)C2CCCCN2c2ccc(C(=O)NCCOC)cc21 (stereo not drawn)	inconclusive: 18.5 µM [inhibitor, single point]	–
N#Cc1c(N)nc(SCC(=O)NCc2ccc3c(c2)OCO3)c(C#N)c1-c1cccs1	inconclusive: 8.28 µM [inhibitor, partial curve, poor fit]	–
CC1=CN2CC(O)CN=C2C=C1 (stereo not drawn)	inconclusive: 0.117 µM [inhibitor, full curve, poor fit]	–
COc1ccccc1N1CCN(C(=O)/C=C/c2cccs2)CC1	inactive	–
CSc1ccccc1NC(=O)c1ccc2c(c1)CCN2S(C)(=O)=O	inactive	–
O=C(Nc1ccc2c(c1)OCO2)c1nn(-c2ccccc2)c(=O)c2ccccc12	active: 13.1 µM	–
Cc1ccccc1C(=O)NC(=S)Nc1sc2c(c1C#N)CCC(C)C2 (stereo not drawn)	inactive	–
Cc1cc(Cl)ccc1OCC(=O)Nc1ccccc1N1CCOCC1	inconclusive: 18.5 µM [inhibitor, single point]	–
CC(C)NC(=O)c1ccc(-n2c(=S)[nH]c3ccccc3c2=O)cc1	–	inactive: 55.4% [at 5.75 µM]
COc1ccc(OC)c(C2=NOC(C(=O)N3CCN(c4ccccc4)CC3)C2)c1 (stereo not drawn)	inconclusive: 18.5 µM [inhibitor, single point]	–
NCC1CCC(N)C(O[C@@H]2C(O)[C@H](O[C@H]3OC(CO)C(O)C(N)C3O)[C@@H](N)C[C@H]2N)O1 (stereo partly drawn)	inconclusive: 9.53 µM [inhibitor, partial curve]	–
CCc1ccc(NC(=O)C(=O)NNC(=O)COc2cccc(OC)c2)cc1	inactive	–
CN(Cc1ccccc1)C(=O)c1c[nH]c2ccc(S(=O)(=O)N3CCOCC3)cc2c1=O	inconclusive: 14.7 µM [inhibitor, single point]	–
CCOC(=O)c1cnc2c(C)cccc2c1NCc1ccco1	inconclusive: 18.5 µM [inhibitor, single point]	–
Cc1c(NC(=S)N/N=C/C=C/c2ccccc2)c(=O)n(-c2ccccc2)n1C	inconclusive: 9.28 µM [inhibitor, single point]	–
CN(C)S(=O)(=O)c1cccc(NC(=O)CCc2nc3cc(S(=O)(=O)N4CCOCC4)ccc3n2C)c1	inconclusive: 8.28 µM [inhibitor, partial curve]	–
CCCCOc1ccc(C(=O)N/N=C/c2cn[nH]c2-c2ccc(OC)c(OC)c2)cc1	inconclusive: 14.7 µM [inhibitor, partial curve, poor fit]	–
CCc1cc2c(COC(=O)c3cccc(S(C)(=O)=O)c3)cc(=O)oc2cc1O	inconclusive: 8.28 µM [inhibitor, partial curve, poor fit]	–
COCCNC(=O)C(c1ccc(C)o1)N(CCOC)C(=O)Cn1nnc2ccccc21 (stereo not drawn)	inconclusive: 0.0586 µM [inhibitor, full curve]	–
CS(=O)(=O)c1ccc(Cl)c(NC(=O)C2CC(=O)N(c3ccc4c(c3)OCCO4)C2)c1 (stereo not drawn)	inactive	–

Taken from above.
Value for CCc1ccc(NC(=O)C(=O)NNC(=O)COc2cccc(OC)c2)cc1 under Potency: inactive
Value for COc1ccc(OC)c(C2=NOC(C(=O)N3CCN(c4ccccc4)CC3)C2)c1 (stereo not drawn) under Potency: inconclusive: 18.5 µM [inhibitor, single point]
Value for Cc1c(NC(=S)N/N=C/C=C/c2ccccc2)c(=O)n(-c2ccccc2)n1C under Potency: inconclusive: 9.28 µM [inhibitor, single point]
Value for CCCCOc1ccc(C(=O)N/N=C/c2cn[nH]c2-c2ccc(OC)c(OC)c2)cc1 under Potency: inconclusive: 14.7 µM [inhibitor, partial curve, poor fit]

Further structures follow:

SMILES	Potency	activity change, negative = inhibition
CCOC(=O)N1CCN(C(=O)CSc2nc3c(cnn3-c3ccc(C)cc3)c(=O)[nH]2)CC1	inconclusive: 3.7 µM [inhibitor, partial curve, poor fit]	–
COc1cc([N+](=O)[O-])ccc1NC(=S)Nc1cccc(C(=O)O)c1	active: 1.47 µM	–
COc1ccc2ncc(S(=O)(=O)c3ccccc3)c(N3CCN(c4ccccc4)CC3)c2c1	active: 13.1 µM	–
CCCCn1c(N)c(N(CCOC)C(=O)C2CCN(S(=O)(=O)c3ccc(Cl)cc3)CC2)c(=O)[nH]c1=O	inconclusive: 0.415 µM [inhibitor, full curve, poor fit]	–
CC(=O)C1=C(C)NC(SCC(=O)c2ccc(-c3ccccc3)cc2)=C(C#N)C1c1cccnc1 (stereo not drawn)	inconclusive: 8.28 µM [inhibitor, partial curve, poor fit]	–
O=C(c1cccs1)N1CCN(c2nnc(-c3ccccc3)c3ccccc23)CC1	inconclusive: 8.28 µM [inhibitor, single point]	–
COc1ccccc1C1N(c2cc(Cl)ccc2OC)C(=O)C2CCCN21 (stereo not drawn)	inactive	–
Cn1c2ccccc2c2nnc(SCC(=O)NCc3ccoc3)nc21	inactive	–
CCn1c(=O)c(C(=O)CN2CCN(Cc3ccc4c(c3)OCO4)CC2)c(N)n(Cc2ccccc2)c1=O	inconclusive: 13.1 µM [inhibitor, single point]	–
Cc1ccc(NC(=O)C2CCN(S(=O)(=O)c3ccc4c(c3)NC(=O)C(C)S4)CC2)c(Cl)c1 (stereo not drawn)	inconclusive: 18.5 µM [inhibitor, single point]	–
O=C(NN1CCCCC1)c1cccc2ccccc12	inactive	–
CSc1nnc2c3ccccc3n(CCc3ccccc3)c2n1	inconclusive: 0.465 µM [inhibitor, full curve, poor fit]	–
COCc1ccc(C(=O)N2CCCC(CCC(=O)NCc3ccccc3F)C2)o1 (stereo not drawn)	inconclusive: 10.4 µM [inhibitor, single point]	–
COCCn1c(-c2ccc(OC)cc2)nc2ccccc21	inconclusive: 18.5 µM [inhibitor, single point]	–
O=C(COC(=O)c1cn(-c2ccccc2)nc1-c1cccs1)NC1CC1	inconclusive: 0.0928 µM [inhibitor, full curve, poor fit]	–
CCN(CC)c1ccc(/C=N/NC(=O)CNC(=O)C2COc3ccccc3O2)c(O)c1 (stereo not drawn)	inconclusive: 18.5 µM [inhibitor, single point]	–
Clc1nc(Cl)nc(N(c2ccccc2)c2ccccc2)n1	inconclusive: 1.31 µM [inhibitor, full curve, poor fit]	–
O=C(CSC1CS(=O)(=O)c2cc([N+](=O)[O-])ccc21)NNC(=O)c1ccc(Cl)cc1 (stereo not drawn)	inconclusive: 3.29 µM [inhibitor, single point]	–
O=C(NCCC1=CCCCC1)c1cc(-c2ccncc2)nc2ccccc12	inactive	–
CC(C)(C)OC(=O)N1CCC[C@H]1C(=O)Nc1ccc(C#N)cc1	inactive	–
O=C(O)c1sc2cc(C(F)(F)F)cnc2c1-c1ccccc1	inactive	–
COc1cc([N+](=O)[O-])ccc1NC(=O)CC1SC(=Nc2ccc(F)cc2)N(CCC2=CCCCC2)C1=O (stereo not drawn)	active: 1.85 µM	–
CCc1ccccc1NC1c2ccccc2C(=O)N1Cc1ccco1 (stereo not drawn)	inactive	–

SMILES	Potency	activity change, negative = inhibition
C/C(CCc1ccc2c(c1)OCO2)=N\N=C1\NC(=O)CC(C(=O)Nc2ccccc2)S1 (stereo not drawn)	inconclusive: 18.5 µM [inhibitor, single point]	–
CCOC(=O)C1=C(C)N(c2ccc(C)c(C)c2)C(=O)/C1=C\c1ccco1	inconclusive: 9.28 µM [inhibitor, single point]	–
CC(C)CC1Nc2ccc(C(=O)NCCCN3CCOCC3)cc2NC1=O (stereo not drawn)	inconclusive: 18.5 µM [inhibitor, single point]	–
Cc1ccc(CN(C(=O)Cn2nnc3ccccc32)C(C(=O)NCc2ccco2)c2cccs2)cc1 (stereo not drawn)	inactive	–
c1coc(Cn2c(SCc3nc4ccccc4[nH]3)nnc2-c2cnccn2)c1	inconclusive: 9.28 µM [inhibitor, single point]	–
CC(C)n1c(SCC(=O)Nc2nncs2)nnc1-c1ccco1	inconclusive: 14.7 µM [inhibitor, single point]	–
CSc1ccc(-c2nc(CN(C)C3CCOC3)c(C)o2)cc1 (stereo not drawn)	inconclusive: 11.7 µM [inhibitor, single point]	–
CCOC(=O)N1CCN(C2CCCN(C(=O)c3ccccc3N(C)C)C2)CC1 (stereo not drawn)	inactive	–
O=C(CCNS(=O)(=O)c1cccc2nsnc12)NC1CCN(Cc2ccccc2)CC1	inactive	–
Cn1c(CNC(=O)c2ccccc2F)nnc1SCC(=O)NCc1ccccc1	inconclusive: 3.29 µM [inhibitor, partial curve]	–
CN(C)CCCN(C(=O)c1ccc(C(=O)c2ccccc2)cc1)c1nc2cc3c(cc2s1)OCCO3	inconclusive: 18.5 µM [inhibitor, single point]	–
O=C(NCc1cccs1)c1ccc([N+](=O)[O-])cc1Cl	inactive	–
Fc1ccc(-c2nnc(N3CCOCC3)c3ccccc23)cc1F	inconclusive: 18.5 µM [inhibitor, single point]	–
Cc1c(C(=O)N(Cc2ccncc2)CC2CCCO2)oc2c(F)cccc12 (stereo not drawn)	active: 10.4 µM	–
O=C1Nc2cc(C(=O)N3CCC4(CC3)OCCO4)ccc2NC1CSCc1cccc(F)c1 (stereo not drawn)	inactive	–
O=C1Nc2ccc(Br)cc2C1(O)c1ccccc1 (stereo not drawn)	inconclusive: 7.38 µM [inhibitor, partial curve]	–
O=C1CN(C(=O)COC(=O)c2cccc(S(=O)(=O)NCc3ccccc3)c2)c2ccccc2N1	inconclusive: 9.28 µM [inhibitor, single point]	–
CCN(Cc1ccncc1)C(=S)Nc1c(C)cccc1C	active: 2.08 µM	–
CCN1CCN(c2ccc(S(=O)(=O)N3CCCCC3)cc2NC(=O)c2sccc2C)CC1	inconclusive: 10.4 µM [inhibitor, single point]	–
CCOc1ccc(S(=O)(=O)N(C)c2ccc(OCC(=O)NCC3CCCO3)cc2)cc1 (stereo not drawn)	inactive	–
CCc1c(C)sc2nc3c(C(=O)N4CCOCC4)cc(C(=O)c4cc(F)ccc4O)cn3c(=O)c12	active: 2.08 µM	–
NC(=O)CC(NC(=O)Cc1ccc(Cl)cc1)c1ccc(NCCN2CCOCC2)c([N+](=O)[O-])c1 (stereo not drawn)	inconclusive: 0.0104 µM [inhibitor, full curve, poor fit]	–

From PubChem BioAssay AID504834 (National Center for Advancing Translational Sciences (NCATS), 2011)
